# Data reported in the supplement of paper PMC10849652.
# Sequences of proteins named here, by UniProt entry; tags and fusion partners are left off. A change or cut given only in a name is not applied to a line headed by its entry.
# UniProt Q9Y613: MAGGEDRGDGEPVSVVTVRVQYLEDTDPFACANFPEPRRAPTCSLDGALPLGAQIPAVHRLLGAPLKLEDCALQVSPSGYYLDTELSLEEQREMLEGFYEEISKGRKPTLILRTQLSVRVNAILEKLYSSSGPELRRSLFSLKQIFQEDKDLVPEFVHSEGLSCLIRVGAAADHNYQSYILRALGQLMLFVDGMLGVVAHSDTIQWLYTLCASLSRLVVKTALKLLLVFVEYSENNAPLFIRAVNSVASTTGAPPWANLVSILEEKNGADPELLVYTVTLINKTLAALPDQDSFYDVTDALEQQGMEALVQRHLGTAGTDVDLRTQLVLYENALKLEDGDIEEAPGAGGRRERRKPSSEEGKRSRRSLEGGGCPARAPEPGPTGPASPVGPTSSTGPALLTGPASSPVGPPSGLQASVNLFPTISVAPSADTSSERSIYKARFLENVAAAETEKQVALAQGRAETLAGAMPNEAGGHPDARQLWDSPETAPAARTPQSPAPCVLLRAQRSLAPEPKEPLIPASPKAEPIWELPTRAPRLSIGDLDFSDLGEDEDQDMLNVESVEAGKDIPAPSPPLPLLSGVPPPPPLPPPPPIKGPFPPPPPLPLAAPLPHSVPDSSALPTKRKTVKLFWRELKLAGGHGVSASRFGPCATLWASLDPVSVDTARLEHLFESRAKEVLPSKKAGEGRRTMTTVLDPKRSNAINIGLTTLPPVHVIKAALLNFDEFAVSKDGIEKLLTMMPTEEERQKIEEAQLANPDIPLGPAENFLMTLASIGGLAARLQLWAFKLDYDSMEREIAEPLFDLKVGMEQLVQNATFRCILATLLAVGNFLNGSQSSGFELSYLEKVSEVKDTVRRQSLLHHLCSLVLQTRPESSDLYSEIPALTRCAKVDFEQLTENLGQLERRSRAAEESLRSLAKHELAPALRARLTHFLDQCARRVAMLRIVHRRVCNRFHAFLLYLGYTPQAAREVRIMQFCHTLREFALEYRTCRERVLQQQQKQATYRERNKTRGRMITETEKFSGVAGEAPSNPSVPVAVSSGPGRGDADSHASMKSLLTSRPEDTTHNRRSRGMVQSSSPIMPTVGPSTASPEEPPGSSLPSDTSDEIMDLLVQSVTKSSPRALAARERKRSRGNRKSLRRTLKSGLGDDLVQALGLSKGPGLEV
# UniProt Q5JUQ0: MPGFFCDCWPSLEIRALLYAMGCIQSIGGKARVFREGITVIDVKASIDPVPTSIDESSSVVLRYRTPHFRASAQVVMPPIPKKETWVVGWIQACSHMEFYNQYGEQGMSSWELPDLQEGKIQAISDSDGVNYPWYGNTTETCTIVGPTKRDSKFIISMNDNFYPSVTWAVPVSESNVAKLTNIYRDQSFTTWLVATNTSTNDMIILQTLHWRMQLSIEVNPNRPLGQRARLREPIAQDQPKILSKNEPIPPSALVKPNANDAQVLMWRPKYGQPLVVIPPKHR
# UniProt Q96AC1: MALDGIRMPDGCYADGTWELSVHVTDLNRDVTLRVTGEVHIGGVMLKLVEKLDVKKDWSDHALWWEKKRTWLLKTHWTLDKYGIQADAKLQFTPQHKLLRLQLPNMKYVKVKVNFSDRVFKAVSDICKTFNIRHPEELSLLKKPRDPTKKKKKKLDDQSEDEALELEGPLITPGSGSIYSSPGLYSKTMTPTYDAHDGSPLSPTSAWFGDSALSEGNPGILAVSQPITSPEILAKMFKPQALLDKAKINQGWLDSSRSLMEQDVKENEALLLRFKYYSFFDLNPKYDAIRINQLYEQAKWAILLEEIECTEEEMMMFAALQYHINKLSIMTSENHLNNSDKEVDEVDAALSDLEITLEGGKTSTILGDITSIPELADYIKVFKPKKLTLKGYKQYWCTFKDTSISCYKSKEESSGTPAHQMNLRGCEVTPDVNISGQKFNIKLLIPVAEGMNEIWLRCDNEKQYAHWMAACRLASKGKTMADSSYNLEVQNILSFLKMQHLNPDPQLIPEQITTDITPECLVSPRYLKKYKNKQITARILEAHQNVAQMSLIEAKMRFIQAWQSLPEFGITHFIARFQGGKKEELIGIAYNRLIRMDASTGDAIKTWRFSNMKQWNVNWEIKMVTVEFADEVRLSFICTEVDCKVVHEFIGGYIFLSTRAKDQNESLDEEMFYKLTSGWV
# UniProt Q9UHY8: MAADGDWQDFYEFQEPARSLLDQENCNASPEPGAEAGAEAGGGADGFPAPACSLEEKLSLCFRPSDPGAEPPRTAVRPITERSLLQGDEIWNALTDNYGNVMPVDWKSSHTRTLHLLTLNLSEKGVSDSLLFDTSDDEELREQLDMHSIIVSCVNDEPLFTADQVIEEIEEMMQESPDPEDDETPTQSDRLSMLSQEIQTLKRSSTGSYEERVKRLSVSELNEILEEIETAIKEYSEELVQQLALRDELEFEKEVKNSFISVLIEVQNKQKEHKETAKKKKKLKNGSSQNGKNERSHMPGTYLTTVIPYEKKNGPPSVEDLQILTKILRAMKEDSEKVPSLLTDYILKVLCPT
# UniProt Q9UK97: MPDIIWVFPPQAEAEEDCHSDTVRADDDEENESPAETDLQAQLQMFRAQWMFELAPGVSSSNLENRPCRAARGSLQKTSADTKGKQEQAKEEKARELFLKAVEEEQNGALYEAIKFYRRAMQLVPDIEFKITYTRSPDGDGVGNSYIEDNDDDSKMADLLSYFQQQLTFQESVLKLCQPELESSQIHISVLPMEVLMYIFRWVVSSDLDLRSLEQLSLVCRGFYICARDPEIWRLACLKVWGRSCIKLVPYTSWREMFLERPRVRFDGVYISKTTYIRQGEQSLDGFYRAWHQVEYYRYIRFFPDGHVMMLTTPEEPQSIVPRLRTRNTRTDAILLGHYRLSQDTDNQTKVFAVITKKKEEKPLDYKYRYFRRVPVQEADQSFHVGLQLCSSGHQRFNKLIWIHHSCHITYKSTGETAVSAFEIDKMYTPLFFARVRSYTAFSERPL
# UniProt Q7L8L6: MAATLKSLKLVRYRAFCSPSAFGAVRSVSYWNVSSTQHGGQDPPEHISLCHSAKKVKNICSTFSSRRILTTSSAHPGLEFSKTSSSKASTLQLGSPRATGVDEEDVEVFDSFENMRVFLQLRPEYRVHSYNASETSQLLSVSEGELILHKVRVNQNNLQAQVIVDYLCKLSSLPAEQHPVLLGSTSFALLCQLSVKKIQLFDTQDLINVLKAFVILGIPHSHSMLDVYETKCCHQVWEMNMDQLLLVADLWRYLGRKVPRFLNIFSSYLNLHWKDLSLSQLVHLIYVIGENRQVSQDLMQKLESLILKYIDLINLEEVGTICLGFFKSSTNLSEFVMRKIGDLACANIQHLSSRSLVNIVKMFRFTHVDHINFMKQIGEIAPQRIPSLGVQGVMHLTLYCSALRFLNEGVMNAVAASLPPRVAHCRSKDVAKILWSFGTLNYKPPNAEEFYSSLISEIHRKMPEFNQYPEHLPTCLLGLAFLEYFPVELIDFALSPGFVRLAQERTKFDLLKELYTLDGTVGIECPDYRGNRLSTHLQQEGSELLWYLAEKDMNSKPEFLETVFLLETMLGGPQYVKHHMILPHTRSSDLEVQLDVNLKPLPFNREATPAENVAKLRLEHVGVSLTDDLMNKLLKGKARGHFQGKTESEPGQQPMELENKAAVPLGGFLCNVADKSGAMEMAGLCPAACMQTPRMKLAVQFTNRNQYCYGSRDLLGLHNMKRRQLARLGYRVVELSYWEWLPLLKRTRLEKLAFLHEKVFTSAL
# UniProt Q8N6M3: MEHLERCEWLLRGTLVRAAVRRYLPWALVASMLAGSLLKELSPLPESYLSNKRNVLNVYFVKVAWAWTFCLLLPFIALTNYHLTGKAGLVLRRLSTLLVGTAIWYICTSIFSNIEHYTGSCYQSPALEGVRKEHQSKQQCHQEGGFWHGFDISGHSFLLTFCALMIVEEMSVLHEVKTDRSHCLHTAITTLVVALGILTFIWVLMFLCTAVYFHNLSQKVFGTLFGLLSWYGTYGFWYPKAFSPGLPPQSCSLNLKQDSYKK
# UniProt Q9NVI1: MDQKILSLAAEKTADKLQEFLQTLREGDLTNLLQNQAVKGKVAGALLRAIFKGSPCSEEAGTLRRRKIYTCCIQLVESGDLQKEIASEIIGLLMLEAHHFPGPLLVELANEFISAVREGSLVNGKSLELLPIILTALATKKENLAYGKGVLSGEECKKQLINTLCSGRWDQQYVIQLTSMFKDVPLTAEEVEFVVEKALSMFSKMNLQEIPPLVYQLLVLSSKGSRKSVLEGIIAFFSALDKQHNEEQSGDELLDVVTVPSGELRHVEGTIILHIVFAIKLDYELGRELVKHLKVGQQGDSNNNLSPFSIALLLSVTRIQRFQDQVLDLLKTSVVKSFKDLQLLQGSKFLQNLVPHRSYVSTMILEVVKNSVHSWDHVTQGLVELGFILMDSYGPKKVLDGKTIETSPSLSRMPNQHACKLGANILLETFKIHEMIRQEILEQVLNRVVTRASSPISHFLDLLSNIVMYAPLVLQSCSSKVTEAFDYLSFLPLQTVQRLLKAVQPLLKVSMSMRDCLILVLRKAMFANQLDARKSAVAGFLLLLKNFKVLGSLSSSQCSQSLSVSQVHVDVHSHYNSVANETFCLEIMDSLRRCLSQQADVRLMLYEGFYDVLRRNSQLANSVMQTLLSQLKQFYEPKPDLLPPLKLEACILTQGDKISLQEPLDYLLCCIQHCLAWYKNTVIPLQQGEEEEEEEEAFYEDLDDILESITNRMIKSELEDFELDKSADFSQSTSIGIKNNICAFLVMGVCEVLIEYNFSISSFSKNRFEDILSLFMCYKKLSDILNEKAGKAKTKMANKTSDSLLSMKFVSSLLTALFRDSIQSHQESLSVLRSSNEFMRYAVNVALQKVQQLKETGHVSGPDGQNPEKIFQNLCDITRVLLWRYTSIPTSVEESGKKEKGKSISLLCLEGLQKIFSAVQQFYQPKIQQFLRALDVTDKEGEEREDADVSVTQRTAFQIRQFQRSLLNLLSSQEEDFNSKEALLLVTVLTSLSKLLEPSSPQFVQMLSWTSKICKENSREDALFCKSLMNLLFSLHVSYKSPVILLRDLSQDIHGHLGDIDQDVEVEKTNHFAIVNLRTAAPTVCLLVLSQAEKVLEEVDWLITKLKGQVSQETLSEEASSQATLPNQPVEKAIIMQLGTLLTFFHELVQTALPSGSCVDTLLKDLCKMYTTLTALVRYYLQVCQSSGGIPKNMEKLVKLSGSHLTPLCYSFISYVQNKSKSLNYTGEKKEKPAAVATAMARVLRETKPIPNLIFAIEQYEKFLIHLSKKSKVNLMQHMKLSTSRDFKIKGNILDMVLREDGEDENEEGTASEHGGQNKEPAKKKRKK
# UniProt Q6PIJ6: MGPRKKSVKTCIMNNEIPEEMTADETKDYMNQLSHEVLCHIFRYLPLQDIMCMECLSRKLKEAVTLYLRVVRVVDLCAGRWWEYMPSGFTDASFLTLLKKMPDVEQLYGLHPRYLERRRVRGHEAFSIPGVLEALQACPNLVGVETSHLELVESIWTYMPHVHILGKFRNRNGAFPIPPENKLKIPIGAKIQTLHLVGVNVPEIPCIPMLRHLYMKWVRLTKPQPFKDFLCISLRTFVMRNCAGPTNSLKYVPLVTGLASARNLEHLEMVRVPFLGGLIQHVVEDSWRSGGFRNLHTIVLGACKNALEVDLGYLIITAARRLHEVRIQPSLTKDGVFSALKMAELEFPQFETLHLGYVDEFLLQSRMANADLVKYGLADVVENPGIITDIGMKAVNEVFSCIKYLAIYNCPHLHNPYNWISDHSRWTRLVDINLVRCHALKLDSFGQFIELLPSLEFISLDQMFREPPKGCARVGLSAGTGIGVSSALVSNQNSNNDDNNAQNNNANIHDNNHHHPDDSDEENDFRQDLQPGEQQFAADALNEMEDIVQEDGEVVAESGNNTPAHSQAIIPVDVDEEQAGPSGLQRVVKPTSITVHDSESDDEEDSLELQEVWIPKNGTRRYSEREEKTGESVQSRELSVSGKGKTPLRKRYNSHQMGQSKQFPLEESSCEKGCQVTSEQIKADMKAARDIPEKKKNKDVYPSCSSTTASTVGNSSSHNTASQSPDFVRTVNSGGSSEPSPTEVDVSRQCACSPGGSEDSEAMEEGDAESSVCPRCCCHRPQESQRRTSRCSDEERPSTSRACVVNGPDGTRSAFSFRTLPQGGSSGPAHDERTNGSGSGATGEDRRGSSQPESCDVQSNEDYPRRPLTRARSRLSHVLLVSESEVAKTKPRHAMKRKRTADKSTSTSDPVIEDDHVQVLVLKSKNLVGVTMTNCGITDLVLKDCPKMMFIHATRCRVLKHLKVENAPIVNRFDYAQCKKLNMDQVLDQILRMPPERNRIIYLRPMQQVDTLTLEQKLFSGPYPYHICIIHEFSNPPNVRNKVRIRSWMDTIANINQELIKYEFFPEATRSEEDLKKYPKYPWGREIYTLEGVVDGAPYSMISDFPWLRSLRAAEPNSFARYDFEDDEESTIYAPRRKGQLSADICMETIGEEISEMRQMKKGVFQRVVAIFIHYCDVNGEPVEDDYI
# This is one part of the list.
# Legend:
# Test in all cases: log2 fold change, soluble protein after heating vs DMSO (PISA); higher = thermal stabilisation; K562 cells, 10 uM, 30 min; active = over 0.2 and 3.5 SD of the protein, either way, in both replicates (recomputed)
# bafetinib = compound: Cc1ccc(NC(=O)c2ccc(CN3CC[C@H](N(C)C)C3)c(C(F)(F)F)c2)cc1Nc1nccc(-c2cncnc2)n1 [bafetinib]
# Outline: (§1)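 Quantification of soluble protein used TMTpro 16plex LC-MS/MS, with channel sums equalised. Samples were the supernatant after 21,000xg for 90 min of pooled aliquots from K562 cells (2×10^6 cells/mL) treated with 10 μM compound for 30 min, heated for 3 min over 48°C-58°C, and extracted in PBS with 0.5% NP-40 at 4°C. Values, from duplicates, describe thermal stability against control samples on a log2 fold-change scale.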
# [1] = compound: Cc1cccc(CC(=O)N2CCc3c2ccc(-c2cn(C)c4ncnc(N)c24)c3F)n1
# Outline: as §1
# nilotinib = compound: Cc1cn(-c2cc(NC(=O)c3ccc(C)c(Nc4nccc(-c5cccnc5)n4)c3)cc(C(F)(F)F)c2)cn1 [nilotinib]
# Outline: as §1
# [2] = compound: Cc1nc(Nc2n[nH]c3c2CN(C(=O)N[C@H](CN(C)C)c2ccccc2)C3(C)C)c2sccc2n1
# Outline: as §1
# dasatinib = compound: Cc1nc(Nc2ncc(C(=O)Nc3c(C)cccc3Cl)s2)cc(N2CCN(CCO)CC2)n1 [dasatinib]
# Outline: as §1
# [3] = compound: Cc1ncc(-c2ccnc(Nc3ccc(S(C)(=O)=O)cc3)n2)n1C(C)C
# Outline: as §1
# [4] = compound: Cn1cc(-c2ccc3c(c2)CCN3C(=O)Cc2cccc(C(F)(F)F)c2)c2c(N)ncnc21
# Outline: as §1
# [5] = compound: Cn1cc(-c2ccc3nnc(C(F)(F)c4ccc5ncccc5c4)n3n2)cn1
# Outline: as §1
# tipifarnib = compound: Cn1cncc1[C@@](N)(c1ccc(Cl)cc1)c1ccc2c(c1)c(-c1cccc(Cl)c1)cc(=O)n2C [tipifarnib]
# Outline: as §1
# mubritinib = compound: FC(F)(F)c1ccc(/C=C/c2nc(COc3ccc(CCCCn4ccnn4)cc3)co2)cc1 [mubritinib]
# Outline: as §1
# [6] = compound: NC(=O)Nc1cc(-c2cccc(F)c2)sc1C(=O)N[C@H]1CCCNC1
# Outline: as §1
# [7] = compound: NC(=O)c1cnc(N[C@@H]2CCCC[C@@H]2N)nc1Nc1cccc(-n2nccn2)c1
# Outline: as §1
# [8] = compound: NC1(c2ccc(-c3nc4ccn5c(=O)[nH]nc5c4cc3-c3ccccc3)cc2)CCC1
# Outline: as §1
# [9] = compound: NCC(=O)Nc1ccc(-n2nc(C(F)(F)F)cc2-c2ccc3c(ccc4ccccc43)c2)cc1
# Outline: as §1
# entinostat = compound: Nc1ccccc1NC(=O)c1ccc(CNC(=O)OCc2cccnc2)cc1 [entinostat]
# Outline: as §1
# vorinostat = compound: O=C(CCCCCCC(=O)Nc1ccccc1)NO [vorinostat]
# Outline: as §1
# citarinostat = compound: O=C(CCCCCCNC(=O)c1cnc(N(c2ccccc2)c2ccccc2Cl)nc1)NO [citarinostat]
# Outline: as §1
# silmitasertib = compound: O=C(O)c1ccc2c(c1)nc(Nc1cccc(Cl)c1)c1ccncc12 [silmitasertib]
# Outline: as §1
# [10] = compound: O=C1NC(=O)C(c2cnc3ccccn23)=C1c1cn2c3c(cc(F)cc13)CN(C(=O)N1CCCCC1)CC2
# Outline: as §1
# [11] = compound: c1cc(OCCN2CCCCC2)cc(-c2n[nH]c3ccc(-c4nnc[nH]4)cc23)c1
# Outline: as §1
Target,log2 fold change (bafetinib),log2 fold change [1],log2 fold change (nilotinib),log2 fold change [2],log2 fold change (dasatinib),log2 fold change [3],log2 fold change [4],log2 fold change [5],log2 fold change (tipifarnib),log2 fold change (mubritinib),log2 fold change [6],log2 fold change [7],log2 fold change [8],log2 fold change [9],log2 fold change (entinostat),log2 fold change (vorinostat),log2 fold change (citarinostat),log2 fold change (silmitasertib),log2 fold change [10],log2 fold change [11]
FHOD1 (UniProt Q9Y613),inactive: -0.187,inactive: -0.005,inactive: -0.089,inactive: -0.109,inactive: 0.044,inactive: -0.043,inactive: -0.238,inactive: -0.089,inactive: 0.041,inactive: -0.218,inactive: -0.075,inactive: -0.042,inactive: 0.179,inactive: 0.051,inactive: -0.103,inactive: 0.034,inactive: -0.073,inactive: 0.177,inactive: 0.23,inactive: -0.085
FBXW9 (UniProt Q5XUX1),inactive: 0.03,–,inactive: -0.002,inactive: -0.035,inactive: -0.018,inactive: 0.087,inactive: 0.021,inactive: -0.118,inactive: 0.003,inactive: 0.054,inactive: 0.082,inactive: -0.12,inactive: -0.07,inactive: 0.005,inactive: 0.005,–,inactive: 0.05,inactive: 0.005,inactive: -0.02,inactive: 0.045
FBXW2 (UniProt Q9UKT8),inactive: 0.107,–,–,–,inactive: -0.005,–,inactive: 0.101,inactive: -0.13,inactive: 0.01,inactive: 0.023,inactive: -0.019,inactive: 0.009,inactive: -0.137,inactive: 0.022,inactive: -0.037,–,–,inactive: -0.086,inactive: 0.036,–
FNIP1 (UniProt Q8TF40),inactive: -0.107,inactive: -0.022,–,–,inactive: -0.122,–,inactive: -0.133,inactive: 0.069,inactive: 0.118,inactive: 0.039,–,–,inactive: -0.435,–,–,inactive: -0.162,–,inactive: 0.089,inactive: 0.16,–
FAM89A (UniProt Q96GI7),inactive: 0,–,inactive: 0.351,inactive: -0.287,–,inactive: -0.166,–,inactive: -0.111,–,inactive: 0.087,inactive: -0.185,–,inactive: -0.035,–,inactive: 0.026,–,inactive: -0.096,inactive: 0.03,–,inactive: -0.242
FCGR2A (UniProt P12318),inactive: 0.152,inactive: -0.061,inactive: -0.034,inactive: -0.053,inactive: -0.014,inactive: 0.059,–,inactive: -0.039,inactive: 0.018,inactive: 0.031,inactive: -0.008,inactive: -0.113,inactive: 0.099,inactive: -0.052,inactive: -0.002,inactive: -0.103,inactive: -0.029,inactive: -0.045,inactive: 0.137,inactive: -0.1
FAM78A (UniProt Q5JUQ0),inactive: -0.218,inactive: 0.075,inactive: -0.045,inactive: 0.049,inactive: -0.163,inactive: 0.007,inactive: -0.078,inactive: 0,inactive: -0.069,–,inactive: -0.025,inactive: -0.182,–,inactive: -0.136,inactive: -0.097,inactive: -0.072,inactive: -0.009,–,inactive: 0.071,inactive: -0.025
FAXDC2 (UniProt Q96IV6),inactive: -0.129,–,inactive: -0.017,inactive: -0.036,–,inactive: 0.096,–,–,–,–,–,–,–,–,–,–,–,–,–,–
FAT3 isoform 1 (UniProt Q8TDW7),inactive: -0.046,–,inactive: 0.195,inactive: 0.076,inactive: 0.073,inactive: 0.564,–,inactive: -0.232,inactive: 0.01,inactive: -0.087,inactive: -0.131,–,inactive: 0.408,inactive: 0.094,inactive: -0.037,–,inactive: 0.043,inactive: 0.126,inactive: -0.135,inactive: 0.572
FERMT2 isoform 3 (UniProt Q96AC1),inactive: -0.13,inactive: 0.061,inactive: 0.016,inactive: -0.077,inactive: 0.2,inactive: -0.069,inactive: -0.05,inactive: -0.088,inactive: 0.032,inactive: 0.094,inactive: 0.126,–,inactive: 0.291,–,inactive: -0.048,inactive: -0.226,–,inactive: 0.133,inactive: 0.018,–
FEZ2 isoform 2 (UniProt Q9UHY8),inactive: -0.018,inactive: -0.187,inactive: -0.043,inactive: -0.172,inactive: -0.366,inactive: 0.113,inactive: -0.074,inactive: 0.001,inactive: -0.109,inactive: -0.011,inactive: -0.007,inactive: -0.086,inactive: 0.021,inactive: -0.182,inactive: 0.092,inactive: 0.047,–,inactive: 0.021,–,–
FBXO9 (UniProt Q9UK97),inactive: 0.067,inactive: 0.234,inactive: 0.087,inactive: -0.354,inactive: -0.056,inactive: -0.113,inactive: -0.236,inactive: -0.093,inactive: -0.088,inactive: -0.265,–,–,inactive: -0.079,inactive: -0.112,–,inactive: 0.109,inactive: 0.157,inactive: 0.132,–,inactive: 0.054
FASTKD5 (UniProt Q7L8L6),inactive: -0.062,inactive: -0.029,–,–,inactive: -0.411,–,inactive: -0.135,inactive: 0.157,inactive: 0.106,–,inactive: -0.146,inactive: -0.238,–,inactive: -0.236,inactive: 0.269,inactive: 0.257,–,–,inactive: 0.048,–
FHL1 isoform 4 (UniProt Q13642),inactive: -0.03,–,inactive: -0.021,inactive: 0.205,inactive: 0.143,inactive: 0.025,inactive: 0,–,inactive: 0.068,–,inactive: -0.083,inactive: -0.28,–,inactive: -0.13,inactive: -0.139,–,–,–,inactive: 0.044,–
FGFR1OP2 (UniProt Q9NVK5),inactive: -0.052,inactive: 0.037,inactive: 0.037,inactive: 0.04,inactive: -0.077,inactive: -0.121,inactive: -0.007,–,–,inactive: -0.072,–,inactive: 0.01,inactive: -0.067,inactive: 0.076,–,inactive: 0.025,–,inactive: 0.067,inactive: 0.044,–
FAT1 (UniProt Q14517),inactive: -0.061,inactive: 0.044,inactive: 0.013,inactive: 0,inactive: 0.046,inactive: -0.064,inactive: 0.009,inactive: -0.052,inactive: 0.077,inactive: 0.057,inactive: -0.018,–,inactive: 0,inactive: -0.075,inactive: 0.015,inactive: -0.04,–,inactive: 0.176,inactive: -0.051,–
FITM2 (UniProt Q8N6M3),inactive: -0.114,–,inactive: 0.073,inactive: 0.07,–,inactive: 0.211,–,–,–,inactive: 0.08,–,–,inactive: 0.053,–,–,–,inactive: 0.132,inactive: -0.042,–,inactive: -0.031
FANCI (UniProt Q9NVI1),inactive: -0.043,inactive: 0.041,inactive: -0.13,inactive: 0.113,inactive: -0.118,inactive: -0.085,inactive: 0.075,inactive: 0.098,inactive: -0.027,inactive: 0.086,inactive: 0.139,inactive: -0.069,active: -0.281,inactive: -0.08,inactive: 0.083,inactive: 0.112,inactive: 0.099,inactive: -0.089,inactive: 0.033,inactive: -0.045
FBXO38 (UniProt Q6PIJ6),inactive: -0.146,–,–,–,inactive: -0.072,–,inactive: 0.005,inactive: 0.028,inactive: 0.129,–,inactive: 0.146,inactive: -0.066,–,inactive: -0.06,inactive: -0.258,–,inactive: -0.002,–,inactive: 0.186,inactive: -0.088
FBXO11 isoform 5 (UniProt Q86XK2),–,–,–,–,–,–,–,–,inactive: 0.3,inactive: 0.034,inactive: -0.041,–,inactive: 0.25,–,inactive: -0.158,–,–,inactive: 0.029,inactive: -0.025,–
FER (UniProt P16591),–,inactive: -0.041,–,–,–,–,–,–,–,–,–,inactive: 0.25,–,inactive: -0.037,inactive: 0.032,inactive: -0.028,inactive: -0.168,–,–,inactive: 0.2
FAM83A (UniProt Q86UY5),–,inactive: 0.149,inactive: 0.06,inactive: -0.107,–,inactive: 0.371,–,inactive: 0.145,inactive: -0.219,inactive: -0.089,inactive: 0.082,inactive: -0.32,inactive: 0.032,inactive: -0.033,inactive: -0.044,inactive: 0.219,–,inactive: -0.039,inactive: 0.024,–

# A different layout for some results above.
Target | log2 fold change (bafetinib) | log2 fold change [1] | log2 fold change (nilotinib) | log2 fold change [2] | log2 fold change (dasatinib) | log2 fold change [3] | log2 fold change [4] | log2 fold change [5] | log2 fold change (tipifarnib) | log2 fold change (mubritinib) | log2 fold change [6] | log2 fold change [7] | log2 fold change [8] | log2 fold change [9] | log2 fold change (entinostat) | log2 fold change (vorinostat) | log2 fold change (citarinostat) | log2 fold change (silmitasertib) | log2 fold change [10] | log2 fold change [11]
FAT1 (UniProt Q14517) | inactive: -0.061 | inactive: 0.044 | inactive: 0.013 | inactive: 0 | inactive: 0.046 | inactive: -0.064 | inactive: 0.009 | inactive: -0.052 | inactive: 0.077 | inactive: 0.057 | inactive: -0.018 | – | inactive: 0 | inactive: -0.075 | inactive: 0.015 | inactive: -0.04 | – | inactive: 0.176 | inactive: -0.051 | –
FITM2 (UniProt Q8N6M3) | inactive: -0.114 | – | inactive: 0.073 | inactive: 0.07 | – | inactive: 0.211 | – | – | – | inactive: 0.08 | – | – | inactive: 0.053 | – | – | – | inactive: 0.132 | inactive: -0.042 | – | inactive: -0.031
FANCI (UniProt Q9NVI1) | inactive: -0.043 | inactive: 0.041 | inactive: -0.13 | inactive: 0.113 | inactive: -0.118 | inactive: -0.085 | inactive: 0.075 | inactive: 0.098 | inactive: -0.027 | inactive: 0.086 | inactive: 0.139 | inactive: -0.069 | active: -0.281 | inactive: -0.08 | inactive: 0.083 | inactive: 0.112 | inactive: 0.099 | inactive: -0.089 | inactive: 0.033 | inactive: -0.045
FBXO38 (UniProt Q6PIJ6) | inactive: -0.146 | – | – | – | inactive: -0.072 | – | inactive: 0.005 | inactive: 0.028 | inactive: 0.129 | – | inactive: 0.146 | inactive: -0.066 | – | inactive: -0.06 | inactive: -0.258 | – | inactive: -0.002 | – | inactive: 0.186 | inactive: -0.088
